The values below are quoted from earlier work in paper PMC4481117 (Molecular Pain, 2015).

For this data set the following is noted: estimated; cited from earlier work.

Regarding `CC[C@H](C)[C@H](NC(=O)[C@H](CCCNC(=N)N)NC(=O)[C@H](CCCNC(=N)N)NC(=O)[C@H](CC(C)C)NC(=O)[C@H](Cc1ccccc1)NC(=O)CNC(=O)CNC(=O)[C@@H](N)Cc1ccc(O)cc1)C(=O)N[C@@H](CCCNC(=N)N)C(=O)N1CCC[C@H]1C(=O)N[C@@H](CCCCN)C(=O)N[C@@H](CC(C)C)C(=O)N[C@@H](CCCCN)C(=O)N[C@@H](Cc1c[nH]c2ccccc12)C(=O)N[C@@H](CC(=O)O)C(=O)N[C@@H](CC(N)=O)C(=O)N[C@@H](CCC(N)=O)C(=O)O` [Dyn A], the “Concentration of Dyn A within dense core vesicles of neurons” value is 1 mM.
